Results published in patent US6443945B1, “Laser assisted pharmaceutical delivery and fluid removal” (Transmedica International, Inc., priority 1993, dated 2002).

Conditions: 60 mJ pulse plus 30% lidocaine solution, one volunteer

Q: For `CCN(CC)CC(=O)Nc1c(C)cccc1C` [Lidocaine, lidocaine], which “irritation / need for medical treatment” value is on record?
A: no irritation
